Reference: the supplement of paper PMC12819154, “High-throughput peptide-centric local stability assay extends protein–ligand identification to membrane proteins, tissues and bacteria” (Nature Structural & Molecular Biology, 2025)
The list shows a part of the results. Most values lie at the level of the controls, where differences are scatter.

By UniProt entry, the sequences of proteins in these tests, tags left out. Where a name states a change or a piece, a line headed by the entry shows the natural chain unless it says otherwise.
UniProt Q922R1: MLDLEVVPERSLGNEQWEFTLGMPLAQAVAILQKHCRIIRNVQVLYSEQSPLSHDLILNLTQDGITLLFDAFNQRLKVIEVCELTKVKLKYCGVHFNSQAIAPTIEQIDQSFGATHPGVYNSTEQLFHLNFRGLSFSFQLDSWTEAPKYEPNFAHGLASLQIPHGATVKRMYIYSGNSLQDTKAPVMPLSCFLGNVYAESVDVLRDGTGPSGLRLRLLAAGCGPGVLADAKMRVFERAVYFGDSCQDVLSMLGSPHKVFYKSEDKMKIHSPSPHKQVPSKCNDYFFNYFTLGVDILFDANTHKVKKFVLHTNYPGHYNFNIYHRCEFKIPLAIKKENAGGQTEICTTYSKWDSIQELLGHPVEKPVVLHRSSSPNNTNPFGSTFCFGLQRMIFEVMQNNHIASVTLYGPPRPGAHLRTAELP
UniProt Q922Q1: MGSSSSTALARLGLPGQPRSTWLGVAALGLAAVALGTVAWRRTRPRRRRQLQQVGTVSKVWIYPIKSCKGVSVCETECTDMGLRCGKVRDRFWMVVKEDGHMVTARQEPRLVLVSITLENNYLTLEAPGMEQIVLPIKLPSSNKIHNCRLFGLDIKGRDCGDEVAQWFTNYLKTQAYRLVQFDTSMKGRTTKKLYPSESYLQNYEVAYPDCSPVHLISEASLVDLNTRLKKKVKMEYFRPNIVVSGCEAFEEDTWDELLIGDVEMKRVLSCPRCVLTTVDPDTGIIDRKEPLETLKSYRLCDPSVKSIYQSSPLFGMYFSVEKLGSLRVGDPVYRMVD
UniProt Q924A2: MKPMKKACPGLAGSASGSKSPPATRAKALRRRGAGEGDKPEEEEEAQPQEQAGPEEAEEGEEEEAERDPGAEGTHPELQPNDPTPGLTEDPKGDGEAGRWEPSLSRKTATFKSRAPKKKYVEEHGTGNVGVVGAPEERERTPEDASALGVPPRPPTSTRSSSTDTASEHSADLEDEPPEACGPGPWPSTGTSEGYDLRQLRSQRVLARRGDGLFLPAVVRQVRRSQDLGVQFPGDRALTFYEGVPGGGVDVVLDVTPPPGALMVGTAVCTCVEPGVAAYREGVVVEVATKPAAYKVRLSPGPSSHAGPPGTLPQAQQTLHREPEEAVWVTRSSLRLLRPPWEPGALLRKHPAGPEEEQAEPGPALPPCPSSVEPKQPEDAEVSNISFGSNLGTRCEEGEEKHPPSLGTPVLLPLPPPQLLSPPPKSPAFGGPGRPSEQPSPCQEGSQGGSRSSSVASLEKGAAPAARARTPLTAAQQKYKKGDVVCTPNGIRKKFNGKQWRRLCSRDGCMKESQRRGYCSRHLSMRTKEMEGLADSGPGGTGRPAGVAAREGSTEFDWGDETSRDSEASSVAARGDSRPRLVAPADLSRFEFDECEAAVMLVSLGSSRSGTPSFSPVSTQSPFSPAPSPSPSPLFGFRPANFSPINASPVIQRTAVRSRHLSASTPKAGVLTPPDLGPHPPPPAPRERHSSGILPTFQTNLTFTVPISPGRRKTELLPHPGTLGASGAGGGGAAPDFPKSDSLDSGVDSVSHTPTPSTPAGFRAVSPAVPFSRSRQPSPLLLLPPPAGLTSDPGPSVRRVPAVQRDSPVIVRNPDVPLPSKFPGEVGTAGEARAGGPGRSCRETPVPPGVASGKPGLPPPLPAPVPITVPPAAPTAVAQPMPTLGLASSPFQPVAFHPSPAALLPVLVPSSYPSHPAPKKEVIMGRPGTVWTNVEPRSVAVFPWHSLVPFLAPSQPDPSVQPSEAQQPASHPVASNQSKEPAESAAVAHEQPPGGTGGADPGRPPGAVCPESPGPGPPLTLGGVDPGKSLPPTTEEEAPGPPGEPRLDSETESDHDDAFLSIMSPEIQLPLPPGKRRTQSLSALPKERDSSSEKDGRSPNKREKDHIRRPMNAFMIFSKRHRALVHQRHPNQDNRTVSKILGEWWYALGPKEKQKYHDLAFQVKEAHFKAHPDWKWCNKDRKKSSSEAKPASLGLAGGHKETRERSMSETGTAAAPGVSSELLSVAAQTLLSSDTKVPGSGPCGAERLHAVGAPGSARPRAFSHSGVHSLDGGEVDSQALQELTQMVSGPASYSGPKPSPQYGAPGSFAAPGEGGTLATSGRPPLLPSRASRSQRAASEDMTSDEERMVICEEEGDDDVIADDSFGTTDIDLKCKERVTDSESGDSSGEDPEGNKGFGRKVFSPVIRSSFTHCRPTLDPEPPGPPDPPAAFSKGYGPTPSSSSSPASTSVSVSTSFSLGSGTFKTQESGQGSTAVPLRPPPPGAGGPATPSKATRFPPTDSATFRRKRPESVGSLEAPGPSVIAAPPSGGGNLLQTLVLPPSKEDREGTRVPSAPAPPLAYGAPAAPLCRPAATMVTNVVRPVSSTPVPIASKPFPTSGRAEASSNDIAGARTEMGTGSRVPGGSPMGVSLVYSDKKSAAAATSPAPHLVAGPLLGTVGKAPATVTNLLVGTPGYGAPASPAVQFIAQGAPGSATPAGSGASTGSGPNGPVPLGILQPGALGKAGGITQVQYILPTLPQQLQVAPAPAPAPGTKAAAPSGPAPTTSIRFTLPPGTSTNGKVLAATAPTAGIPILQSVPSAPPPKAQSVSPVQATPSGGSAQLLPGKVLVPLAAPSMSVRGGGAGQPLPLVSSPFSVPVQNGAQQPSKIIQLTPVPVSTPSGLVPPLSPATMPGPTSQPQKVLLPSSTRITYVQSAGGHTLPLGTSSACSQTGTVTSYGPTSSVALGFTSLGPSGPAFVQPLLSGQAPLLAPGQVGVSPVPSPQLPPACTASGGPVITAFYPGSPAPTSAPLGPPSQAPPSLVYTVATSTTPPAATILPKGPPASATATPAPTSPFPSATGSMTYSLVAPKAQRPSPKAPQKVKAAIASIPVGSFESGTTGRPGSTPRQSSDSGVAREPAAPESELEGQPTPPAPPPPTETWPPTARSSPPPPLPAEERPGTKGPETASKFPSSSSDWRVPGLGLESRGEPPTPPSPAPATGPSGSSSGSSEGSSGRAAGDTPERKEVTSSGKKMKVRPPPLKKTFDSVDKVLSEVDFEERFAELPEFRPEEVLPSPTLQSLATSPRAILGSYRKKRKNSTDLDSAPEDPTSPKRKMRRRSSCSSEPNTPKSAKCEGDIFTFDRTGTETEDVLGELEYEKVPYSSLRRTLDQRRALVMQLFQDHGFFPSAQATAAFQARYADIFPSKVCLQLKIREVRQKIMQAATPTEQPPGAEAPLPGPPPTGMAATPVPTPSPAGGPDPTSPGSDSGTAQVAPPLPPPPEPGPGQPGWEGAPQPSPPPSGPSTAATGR
UniProt Q99KZ6: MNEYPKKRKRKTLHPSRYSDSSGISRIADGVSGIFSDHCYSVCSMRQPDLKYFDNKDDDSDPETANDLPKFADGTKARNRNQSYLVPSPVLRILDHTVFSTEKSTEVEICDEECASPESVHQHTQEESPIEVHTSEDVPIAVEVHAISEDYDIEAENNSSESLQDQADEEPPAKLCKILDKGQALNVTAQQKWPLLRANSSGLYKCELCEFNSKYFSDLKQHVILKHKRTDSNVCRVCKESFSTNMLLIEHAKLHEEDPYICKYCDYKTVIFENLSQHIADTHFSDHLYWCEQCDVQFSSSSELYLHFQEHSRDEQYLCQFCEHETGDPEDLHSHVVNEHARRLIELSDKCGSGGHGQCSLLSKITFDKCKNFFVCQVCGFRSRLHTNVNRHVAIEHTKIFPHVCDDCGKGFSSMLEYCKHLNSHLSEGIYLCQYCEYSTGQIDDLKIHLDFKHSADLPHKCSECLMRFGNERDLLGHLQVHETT
UniProt Q921U8: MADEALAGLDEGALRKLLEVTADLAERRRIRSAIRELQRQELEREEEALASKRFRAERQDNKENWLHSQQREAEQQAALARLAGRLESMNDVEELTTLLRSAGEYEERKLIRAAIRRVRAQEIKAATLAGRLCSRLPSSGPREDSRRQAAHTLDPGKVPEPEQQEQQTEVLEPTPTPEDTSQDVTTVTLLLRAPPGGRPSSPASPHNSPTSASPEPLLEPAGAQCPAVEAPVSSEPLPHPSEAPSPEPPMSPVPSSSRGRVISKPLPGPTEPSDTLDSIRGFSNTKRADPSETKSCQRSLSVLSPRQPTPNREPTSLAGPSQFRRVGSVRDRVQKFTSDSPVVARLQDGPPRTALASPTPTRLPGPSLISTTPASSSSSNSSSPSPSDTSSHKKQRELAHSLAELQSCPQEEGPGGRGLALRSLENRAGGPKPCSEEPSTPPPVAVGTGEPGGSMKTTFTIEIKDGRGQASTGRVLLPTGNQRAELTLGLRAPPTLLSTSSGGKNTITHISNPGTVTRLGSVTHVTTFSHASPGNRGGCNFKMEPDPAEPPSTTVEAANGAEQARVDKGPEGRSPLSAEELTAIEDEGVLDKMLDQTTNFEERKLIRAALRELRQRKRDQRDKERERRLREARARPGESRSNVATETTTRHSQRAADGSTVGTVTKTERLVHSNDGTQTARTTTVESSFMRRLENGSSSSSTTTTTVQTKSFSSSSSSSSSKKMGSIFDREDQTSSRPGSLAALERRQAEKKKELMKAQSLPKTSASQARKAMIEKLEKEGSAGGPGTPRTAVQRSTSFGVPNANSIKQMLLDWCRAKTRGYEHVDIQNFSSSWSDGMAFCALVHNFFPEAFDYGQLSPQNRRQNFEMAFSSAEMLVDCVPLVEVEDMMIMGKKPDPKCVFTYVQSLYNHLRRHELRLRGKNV
UniProt Q99K95: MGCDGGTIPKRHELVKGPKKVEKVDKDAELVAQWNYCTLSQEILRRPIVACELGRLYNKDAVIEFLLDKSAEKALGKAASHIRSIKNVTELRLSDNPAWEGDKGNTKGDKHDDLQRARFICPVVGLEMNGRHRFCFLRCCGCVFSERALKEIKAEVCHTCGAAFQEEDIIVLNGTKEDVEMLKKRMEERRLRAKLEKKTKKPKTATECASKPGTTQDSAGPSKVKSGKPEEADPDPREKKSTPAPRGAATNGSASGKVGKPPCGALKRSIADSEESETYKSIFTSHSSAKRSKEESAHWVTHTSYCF
UniProt Q922J3: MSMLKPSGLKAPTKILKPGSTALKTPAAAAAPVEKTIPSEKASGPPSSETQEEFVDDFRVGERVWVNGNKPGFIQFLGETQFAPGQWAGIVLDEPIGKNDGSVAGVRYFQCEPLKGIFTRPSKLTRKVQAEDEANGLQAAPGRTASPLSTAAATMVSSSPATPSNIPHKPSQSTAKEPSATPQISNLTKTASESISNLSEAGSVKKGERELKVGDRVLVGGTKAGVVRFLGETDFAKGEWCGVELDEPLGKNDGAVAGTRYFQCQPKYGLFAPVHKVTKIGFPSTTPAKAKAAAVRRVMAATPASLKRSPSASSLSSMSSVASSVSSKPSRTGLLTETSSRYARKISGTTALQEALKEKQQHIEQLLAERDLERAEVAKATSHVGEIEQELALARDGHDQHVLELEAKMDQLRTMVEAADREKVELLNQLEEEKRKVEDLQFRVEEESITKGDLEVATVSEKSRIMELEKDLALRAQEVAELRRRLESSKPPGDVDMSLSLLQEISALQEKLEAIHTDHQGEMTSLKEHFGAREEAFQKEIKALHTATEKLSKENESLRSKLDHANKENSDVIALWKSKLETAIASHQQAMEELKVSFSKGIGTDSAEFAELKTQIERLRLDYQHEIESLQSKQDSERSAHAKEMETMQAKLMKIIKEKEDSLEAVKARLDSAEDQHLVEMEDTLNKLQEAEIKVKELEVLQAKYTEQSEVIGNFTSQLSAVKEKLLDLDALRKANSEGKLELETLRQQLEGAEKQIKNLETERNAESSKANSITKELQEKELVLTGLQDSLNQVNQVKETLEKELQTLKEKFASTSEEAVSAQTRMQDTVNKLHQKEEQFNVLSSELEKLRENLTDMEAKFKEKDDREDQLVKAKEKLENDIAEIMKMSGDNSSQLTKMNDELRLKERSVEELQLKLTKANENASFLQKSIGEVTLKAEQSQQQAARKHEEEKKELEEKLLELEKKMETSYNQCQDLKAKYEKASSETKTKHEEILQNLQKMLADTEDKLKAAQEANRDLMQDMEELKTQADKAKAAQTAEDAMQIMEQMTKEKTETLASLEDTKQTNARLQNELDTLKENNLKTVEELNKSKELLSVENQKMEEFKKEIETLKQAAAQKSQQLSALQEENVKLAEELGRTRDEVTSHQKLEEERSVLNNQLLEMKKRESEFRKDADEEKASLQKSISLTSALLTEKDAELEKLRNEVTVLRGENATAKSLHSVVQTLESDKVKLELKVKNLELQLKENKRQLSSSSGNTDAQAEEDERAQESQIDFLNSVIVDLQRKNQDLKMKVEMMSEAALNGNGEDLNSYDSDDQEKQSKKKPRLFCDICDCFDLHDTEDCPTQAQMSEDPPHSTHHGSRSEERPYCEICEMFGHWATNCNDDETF

compound: CN[C@@H]1C[C@H]2O[C@@](C)([C@@H]1OC)n1c3ccccc3c3c4c(c5c6ccccc6n2c5c31)C(=O)NC4 [staurosporine]; experiment: log2 fold change of tryptic peptide abundance, ligand vs vehicle (limited proteolysis) (log2 ratio); higher = more trypsin-susceptible (destabilized); conditions: ligand concentration: 20 uM; sample: mouse liver crude lysate; replicate design: treated separately

Row | Target | log2 fold change
1 | UniProt Q922R1 (peptide sequence: MLDLEVVPER, peptide start residue: 1) | -0.364
2 | UniProt Q99L45 (peptide sequence: TSFVNFTDICKLLHRQPK, peptide start residue: 215) | -0.503
3 | UniProt Q922Q1 (peptide sequence: CVLTTVDPDTGIIDRK, peptide start residue: 274) | 0.193
4 | UniProt Q924A2 (peptide sequence: AEASSNDIAGAR, peptide start residue: 1601) | 0.239
5 | UniProt Q99KZ6 (peptide sequence: YSDSSGISR, peptide start residue: 18) | 0.376
6 | UniProt Q921U8 (peptide sequence: QELEREEEALASKR, peptide start residue: 40) | -0.518
7 | UniProt Q99JW4 (peptide sequence: FVEFDMKPVCKK, peptide start residue: 291) | -0.172
8 | UniProt Q99K95 (peptide sequence: CCGCVFSER, peptide start residue: 139) | 0.215
9 | UniProt Q99JG7 (peptide sequence: VQMLEQQILAYKDDFK, peptide start residue: 297) | 0.631
10 | UniProt Q99KQ4 (peptide sequence: LLPPYLR, peptide start residue: 343) | -0.274
11 | UniProt Q922J3 (peptide sequence: VMAATPASLKR, peptide start residue: 298) | 0.471
